Measurements reported in PubChem BioAssay AID743121 (NCATS, 2013)
Shown is one part, drawn at random, of about 26,000 reagents tested. Over the whole deposit, 167 (0.63%) are marked active. 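Calls are per gene from RSA p-values that are not deposited; an individual active-marked siRNA can sensitise only weakly.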 The numbers tell different reagents against one gene apart. Not all columns of the deposit are shown.

Assay: 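Partners whose loss is lethal together with topoisomerase I blockade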 (primary screen)
Cells: MDA-MB-231 cells, a human breast cancer line
Reagents: single siRNA against human genes, 20 nM siRNA (0.8 pmol per well)
Time to read-out: 120 h (drug added 48 h after transfection, read 72 h later)
Challenge: camptothecin 20 nM (about EC30) for 72 h; vehicle 0.1% DMSO in parallel plates
Measured: 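Cell viability by ATP luminescence (CellTiter-Glo) as % of non-targeting siRNA wells, and the log2 ratio of viability without drug over viability with camptothecin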
Direction: log2 vehicle/camptothecin viability: higher = stronger sensitisation to camptothecin
Hit rule: 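Active genes have an RSA gene-level p-value below 0.001, computed from the ratios of their separate siRNAs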

NOL6 (nucleolar protein 6) #1 — log2 vehicle/camptothecin viability: -0.497; outcome: inactive
NOL6 (nucleolar protein 6) #2 — log2 vehicle/camptothecin viability: -0.442; outcome: inactive
NOL6 (nucleolar protein 6) #3 — log2 vehicle/camptothecin viability: -0.314; outcome: inactive
NOL6 (nucleolar protein 6) #4 — log2 vehicle/camptothecin viability: -0.71; outcome: inactive
ADGRV1 (adhesion G protein-coupled receptor V1) #1 — log2 vehicle/camptothecin viability: -0.192; outcome: inactive
ADGRV1 (adhesion G protein-coupled receptor V1) #2 — log2 vehicle/camptothecin viability: 0.0792; outcome: inactive
ADGRV1 (adhesion G protein-coupled receptor V1) #3 — log2 vehicle/camptothecin viability: -0.0258; outcome: inactive
ADGRV1 (adhesion G protein-coupled receptor V1) #4 — log2 vehicle/camptothecin viability: -0.16; outcome: inactive

Records above whose target name begins with N or n:
NOL6 (nucleolar protein 6) #1 — log2 vehicle/camptothecin viability: -0.497; outcome: inactive
NOL6 (nucleolar protein 6) #2 — log2 vehicle/camptothecin viability: -0.442; outcome: inactive
NOL6 (nucleolar protein 6) #3 — log2 vehicle/camptothecin viability: -0.314; outcome: inactive
NOL6 (nucleolar protein 6) #4 — log2 vehicle/camptothecin viability: -0.71; outcome: inactive

The listing continues.
PSMB4 (proteasome 20S subunit beta 4) #1 — log2 vehicle/camptothecin viability: -0.881; outcome: inactive
PSMB4 (proteasome 20S subunit beta 4) #2 — log2 vehicle/camptothecin viability: -0.583; outcome: inactive
PSMB4 (proteasome 20S subunit beta 4) #3 — log2 vehicle/camptothecin viability: 0.547; outcome: inactive
PSMB4 (proteasome 20S subunit beta 4) #4 — log2 vehicle/camptothecin viability: -0.0717; outcome: inactive
CAMK2G (calcium/calmodulin dependent protein kinase II gamma) #1 — log2 vehicle/camptothecin viability: 0.278; outcome: inactive
CAMK2G (calcium/calmodulin dependent protein kinase II gamma) #2 — log2 vehicle/camptothecin viability: -0.189; outcome: inactive
CAMK2G (calcium/calmodulin dependent protein kinase II gamma) #3 — log2 vehicle/camptothecin viability: -0.00811; outcome: inactive
CAMK2G (calcium/calmodulin dependent protein kinase II gamma) #4 — log2 vehicle/camptothecin viability: 0.176; outcome: inactive
